In all, about 320,000 compounds went through this assay and about 2,100 (0.66%) were called active. This list was built around the results that the source calls inconclusive (neither active nor inactive); the mix of calls is not that of the screen. Calls come from the whole dose curve; as a rule, active = well fitted inhibition curve with a large enough effect in the signal ratio, with a control signal flat (not every such curve was filed as active); inconclusive = small, poorly fitted or top-dose-only effect, or effect the other way, or a change in a side signal; inactive = flat fitted curve, though single readings scatter; the % refers to the signal ratio. A potency beside an inconclusive call is a rough fit, not a confirmed value. Where a SMILES comes first, the peptide text is derived from it. [ ]: non-standard residue; d: D form. The star is where a group is joined. ξ: configuration not given here. Cbz = O=C(OCc1ccccc1)*; OBn = c1ccc(CO*)cc1; ξP = O=C(O)C1CCCN1
test: qHTS Assay for Lipid Storage Modulators in Drosophila S3 Cells; settings: BODIPY lipid droplet fluorescence, 18-24 h, cells fed with added oleic acid; lipid storage change, negative = inhibition: at 46.1 µM (top of the series) unless noted
Method in brief: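 Drosophila S3 cells got compounds at several concentrations plus oleic acid (400 uM solution). Laser-scanning cytometry with 488 nm excitation read lipid droplets at 500-530 nm and cells at 575-640 nm. Percent activity was relative to 20 uM Triacsin C.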
% is set by controls: 0 for no effect and ±100 for the full control effect; potency is the fitted concentration of half-maximal effect.

Row | SMILES | lipid storage change, negative = inhibition | Potency
1 | CCC(C(=O)NCc1ccc(F)cc1)N(Cc1cccs1)C(=O)c1snc(C(N)=O)c1N (centres undefined) | inconclusive: 4.24% | –
2 | O=C(NCc1cccc(C(F)(F)F)c1)C1CCN(c2ncccn2)CC1 | inconclusive: 3.17% | –
3 | CCc1c(C)nc2ncnn2c1N1CCCC(C(=O)NCCc2ccccc2)C1 (centres undefined) | inconclusive: -37.9% | –
4 | COc1ccc(/C=N/NC(=O)CCOc2ccccc2C)cc1OC | inconclusive: -6.01% | –
5 | CCSc1nc2c(c(=O)[nH]c(=O)n2C)n1C/C=C(/C)Cl | – | inconclusive: 0.259 µM [activator, full curve]
6 | C/C(=N\NC(=O)c1ccc(N)cc1)C1CC1 | inconclusive: 36.7% | –
7 | CCOC(=O)c1sc2nc(-c3ccccc3)ccc2c1N | – | inconclusive: 2.06 µM [activator, partial curve]
8 | CCS(=O)(=O)N1CCC(N2CCC(C)CC2)CC1 | inconclusive: -24.6% | –
9 | CCC(C)N1C(=O)S/C(=C/c2ccc3c(c2)n(C)c(=O)n3C)C1=O (centres undefined) | inconclusive: -9.32% | –
10 | Cc1ccc(S(=O)(=O)NC(C)(C)C)cc1C(=O)OC(C)C(=O)NC1CC1 (centres undefined) | inconclusive | –
11 | COc1cc2c(cc1OC)C(C)N(C(=O)c1ccc(Br)o1)CC2 (centres undefined) | inconclusive: -61.6% | –
12 | O=C(NCc1cccs1)C1CCCCC1 | – | inconclusive: 29.1 µM [falling, single point]
13 | COc1ccc(/C(=C/Nc2cccc(Br)c2)C(C)=O)cc1OC | inconclusive: 1.41% | –
14 | CCC(C)NC(=O)NC1C(NC(=O)NC(C)CC)N(C)C(=O)N1C (centres undefined) | inconclusive: 11.6% | –
15 | O=C(CN1C2=NCCN2c2ccccc21)c1ccc2c(c1)OCO2 | inconclusive: 19.7% | –
16 | Cc1cccc(C)c1NC(=O)C1c2ccccc2Oc2ccccc21 | inconclusive: -32.9% | –
17 | CC(=O)C1=C(C)OC(N)=C(C#N)C1c1cccc([N+](=O)[O-])c1 (centres undefined) | inconclusive: 2.05% | –
18 | CCOc1ccc(NC(=O)CCc2nnc3ccc(N4CCC(C)CC4)nn23)cc1 | inconclusive: -87% | –
19 | Cc1ccnc(NS(=O)(=O)c2ccc(NC(=O)c3cc(-c4ccccc4)nc4ccccc34)cc2)n1 | inconclusive: 0.568% | –
20 | CCN(CC)C(=O)Cn1c(=O)n(CCCCCC(=O)Nc2ccccc2)c(=O)c2sccc21 | inconclusive: -11.7% | –
21 | COCCOC(=O)C1=C(C)Nc2nc(C)nn2C1c1ccc(F)cc1 (centres undefined) | inconclusive: -64.5% | –
22 | COc1ccc(N2CCN(C(=O)CCNC(=O)c3ccc(Br)cc3)CC2)cc1 | inconclusive: 47.9% | –
23 | O=C(Nc1nc2c(F)cc(F)cc2s1)c1ccc([N+](=O)[O-])o1 | – | active: 5.8 µM
24 | Cc1cc(C)cc(N(CCC#N)C(=O)COC(=O)CNC(=O)c2sc3ccccc3c2Cl)c1 | inconclusive: 35.8% | –
25 | CCCC1CCc2c(sc(NC(=O)c3cccs3)c2C(N)=O)C1 (centres undefined) | inconclusive: -13.9% | –
26 | C=C(C)c1cccc(C(C)(C)NC(=O)Nc2ccc(C(C)=O)cc2)c1 | inconclusive: -19.8% | –
27 | CC(C)CNC(=O)c1cccc(NC(=O)Cc2ccc(Br)cc2)c1 | inconclusive: 17% | –

Row | SMILES | lipid storage change, negative = inhibition | Potency
28 | CCOC(=O)C(NC(=O)CC)C(O)c1cccc([N+](=O)[O-])c1 (centres undefined) | – | inconclusive: 0.651 µM [falling, full curve, poor fit]
29 | O=C1CCCc2ccccc2N1Cc1c(Cl)cccc1Cl | inconclusive: 47.2% | –
30 | CCOc1cccc(OCCOCCN(C)Cc2ccccc2)c1 | inconclusive: -29.4% | –
31 | O=C(CSc1nnnn1-c1ccc2c(c1)OCCO2)c1cccc2c1OCCO2 | inconclusive: 100% | –
32 | COc1c(N2CCN(C(=S)NC3CC4CCC3C4)C(C)C2)c(F)cc2c(=O)c(C(=O)O)cn(C3CC3)c12 (centres undefined) | inconclusive: -10.5% | –
33 | COc1ccc2c(c1)OC[C@H]1[C@H]2N2C(=O)CN(CCc3c[nH]c4ccccc34)C(=O)[C@@]2(C)[C@H]1c1ccccc1 | – | inconclusive: 4.11 µM [falling, single point]
34 | O=C1c2cccc3cccc(c23)C(=O)N1Cc1cccnc1 | inconclusive: 14.1% | –
35 | COCCn1c(CN2CCN(C)CC2)nc2c1c(=O)n(C)c(=O)n2C | inconclusive: -54.3% | –
36 | Cc1noc(C)c1S(=O)(=O)N1CCC(C(=O)N(C)Cc2ccccc2)CC1 | inconclusive: 18.8% | –
37 | Cc1ccc(/C=N\NC(=O)c2cncc(Br)c2)o1 | inconclusive: 3.75% | –
38 | O=C(Nc1ccc(NC(=O)c2cccs2)cn1)c1ccco1 | inconclusive: -40.8% | –
39 | O=C(NC1CCCCC1)C(c1ccncc1)N(C(=O)Cn1nnc(-c2cccs2)n1)C1CCCC1 (centres undefined) | inconclusive: 8.19% | –
40 | COCCCN1C(=O)c2ccc(C(=O)OCC(=O)N3CCN(c4ccccc4)CC3)cc2C1=O | inconclusive: -20.6% | –
41 | COc1ccc(/C=C(/C(=O)NCc2ccccc2)c2ccccc2)cc1 | – | inconclusive: 29.1 µM [falling, single point]
42 | O=C(CNC(=O)OCc1ccccc1)NCC(=O)N1CCCC1C(=O)OCc1ccccc1 (stereo not drawn) (Cbz-Gly-Gly-[ξP]-OBn) | inconclusive: 15.8% | –
43 | COc1ccc(OC(=O)c2ccc(OC)c(S(=O)(=O)N3CCOCC3)c2)cc1 | inconclusive: 45.5% | –
44 | CC1(C(=O)NCc2ccccc2)Oc2ccccc2NC1=O (centres undefined) | – | active: 23.1 µM
45 | Cc1nc2ccc3[nH]snc3c2n1 | inconclusive: 73.3% | –
46 | CC(C)NS(=O)(=O)c1ccc(NC(=S)NC(=O)c2cccc([N+](=O)[O-])c2)cc1 | inconclusive: 20.1% | –
47 | Cc1ccc(O)c(CNc2nc3ccccc3n2C)c1 | inconclusive: 73.5% | –
48 | Cc1cccc(Oc2cc(NC(=O)Cn3cnc([N+](=O)[O-])n3)cc([N+](=O)[O-])c2)c1 | inconclusive: 2.02% | –
49 | CCN(CC)CCOc1ccc(/C(=C(/Cl)c2ccccc2)c2ccccc2)cc1 | inconclusive: -57.5% | –
50 | C=CCNC(=S)N/N=C(\C)c1cccc(NC(C)=O)c1 | – | inconclusive: 0.164 µM [rising, full curve]
51 | CCN1C(=O)/C(=C/C=C2/Sc3ccc4ccccc4c3N2CCO)SC1=S | inconclusive: -29.8% | –
52 | Cc1ccc(NC(=O)c2cc(NC(=O)c3ccco3)ccc2N2CCOCC2)cc1 | – | inconclusive: 1.16 µM [activator, full curve]
53 | COC(=O)c1ccc([N+](=O)[O-])cc1N1C(=O)C2C3CCC(C3)C2C1=O (centres undefined) | inconclusive: -21.5% | –
54 | Cc1nn(C(C)C(=O)N2CCc3ccccc3C2)c(=O)c2cc3occc3n12 (centres undefined) | inconclusive: -3.81% | –

Random excerpt: three entries already listed, in no set order.
Row | SMILES | lipid storage change, negative = inhibition | Potency
35 | COCCn1c(CN2CCN(C)CC2)nc2c1c(=O)n(C)c(=O)n2C | inconclusive: -54.3% | –
40 | COCCCN1C(=O)c2ccc(C(=O)OCC(=O)N3CCN(c4ccccc4)CC3)cc2C1=O | inconclusive: -20.6% | –
50 | C=CCNC(=S)N/N=C(\C)c1cccc(NC(C)=O)c1 | – | inconclusive: 0.164 µM [rising, full curve]

(cont.)

Row | SMILES | lipid storage change, negative = inhibition | Potency
55 | Cc1cccc(CSc2nc3nc(C)cc(C)n3n2)c1 | inconclusive: 15.7% | –
56 | CC(C)(C)n1nnnc1C(c1cccs1)N(Cc1ccc(Cl)cc1)CC1CCCO1 (centres undefined) | inconclusive: -14.7% | –
57 | COc1ccc(N(CC(=O)NC2CC3CCC2C3)S(=O)(=O)c2ccc(C)c([N+](=O)[O-])c2)cc1 (centres undefined) | – | inconclusive: 0.58 µM [falling, partial curve]
58 | N#Cc1nc(-c2ccccc2F)oc1N1CCN(C(=O)c2ccco2)CC1 | – | inconclusive: 15.8 µM [falling, single point]
59 | COCCN(CC(=O)Nc1cccc(C)c1C)C(=O)c1cc2c(s1)CCC2 | inconclusive: 23.4% | –
60 | CCC(C)NC(=S)Nc1ccc(F)cc1 (centres undefined) | – | inconclusive: 0.0041 µM [falling, full curve, poor fit]
61 | Cc1cnc(C(=O)OCC(=O)Nc2ccc(Cl)cc2)cn1 | inconclusive: -19.4% | –
62 | O=C(NCCc1ccccc1)C1CCN(Cc2cccc3ccccc23)CC1 | – | inconclusive: 29.1 µM [activator, single point]
63 | CC(=O)NC(Cc1ccccc1F)C(=O)NC1CCN(C(=O)Nc2ccc(C)cc2)CC1 (centres undefined) | inconclusive: -16% | –
64 | Cn1c2c(c(=O)n(C)c1=O)CN(CC1CCCO1)CN2 (centres undefined) | – | inconclusive: 0.13 µM [activator, full curve, poor fit]
65 | CCC(C)NC(=O)c1ccc(COc2ccccc2Cl)cc1 (centres undefined) | – | inconclusive: 5.8 µM [activator, partial curve]
66 | CC(=O)NS(=O)(=O)c1ccc(NS(=O)(=O)c2ccccc2[N+](=O)[O-])cc1 | – | inconclusive: 0.116 µM [cytotoxic, full curve, poor fit]
67 | Cc1cccc(Cn2c(SCC(=O)Nc3ccccc3)nc3c2c(=O)[nH]c(=O)n3C)c1 | inconclusive: 12.4% | –
68 | Cc1ccccc1NC1=C(Cl)C(=O)OC1OC(C)C (centres undefined) | – | inconclusive: 0.731 µM [falling, full curve, poor fit]
69 | Cc1oc(-c2ccccc2Cl)nc1CSCC(=O)NC1CC1 | inconclusive: -23.2% | –
70 | COCCNC(=O)c1ccccc1NC(=O)C1COc2ccccc2O1 (centres undefined) | inconclusive: 18.8% | –
71 | CCCc1cc(=O)[nH]c(SCC(=O)OCc2ccccc2)n1 | inconclusive: -22.4% | –
72 | O=C(N/N=C/c1ccncc1)c1cc(Br)ccc1OCc1ccccc1 | inconclusive: -39.9% | –
73 | Cc1ccc(NC(=O)c2cccc3ccccc23)cc1 | inconclusive: -19.7% | –
74 | Cc1ccccc1NC(=O)C1CCCN(C(=O)Nc2ccc(F)cc2)C1 (centres undefined) | inconclusive: 113% | –
75 | CC(NC(=O)CNC(=O)c1ccco1)c1ccccc1 (centres undefined) | – | inconclusive: 0.0046 µM [activator, full curve, poor fit]
76 | O=C(CCc1ccccc1)Nc1cccc([N+](=O)[O-])c1 | inconclusive: 28.5% | –
77 | CCOC(=O)C1CCCN(C(=O)CCNC(=O)Cn2ccc3ccccc3c2=O)C1 (centres undefined) | inconclusive: -121% | –
78 | CCCCn1c(=O)c2ccccc2n2c(=S)[nH]nc12 | – | inconclusive: 20.6 µM [falling, single point]
79 | COc1ccc(Cl)cc1S(=O)(=O)Nc1cccc(C(=O)O)c1 | inconclusive: -12.4% | –

Reference: PubChem BioAssay AID2685 (National Center for Advancing Translational Sciences (NCATS), 2010)
